Measured data: PubChem BioAssay AID1259424 (University of Nebraska Medical Center, 2018)

- Assay: 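Find knockdowns that reproduce the expression shifts seen after KSR1 loss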 (primary screen)
- Cells: human HCT116 colon cancer cells
- Knock-down reagent: siRNA pool against human genes, 50 nM
- Detection: 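Log2 levels of six mRNAs (branched-DNA multiplex), adjusted by two reference genes and the non-targeting median, then scored against the average KSR1 knockdown pattern as Pearson r and euclidean distance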
- Reading the numbers: mean correlation with KSR1 profile and KSR1 correlation: higher = expression change more like KSR1 knockdown; mean distance from KSR1 profile: higher = expression change less like KSR1 knockdown
In all, the deposit lists about 14,000 reagents; below is a random part of them. 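Higher correlation or smaller distance means closer resemblance to KSR1 loss; control wells, including KSR1 knockdowns, recur on many plates.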 The record does not give: the time to read-out.

Gene | mean correlation with KSR1 profile | mean distance from KSR1 profile | KSR1 correlation, replicate 1 | KSR1 correlation, replicate 2 | KSR1 correlation, replicate 3
PFDN1 (prefoldin subunit 1) | 0.373 | 3.13 | 0.454 | 0.464 | 0.384
AKAP5 (A-kinase anchoring protein 5) | 0.378 | 2.09 | 0.618 | 0.321 | -0.118
ANAPC4 (anaphase promoting complex subunit 4) | -0.35 | 1.89 | -0.394 | -0.413 | -0.29
TUT4 (terminal uridylyl transferase 4) | -0.141 | 2.56 | -0.654 | -0.618 | 0.158
ZFAND1 (zinc finger AN1-type containing 1) | 0.322 | 3.46 | 0.345 | 0.407 | 0.253
TACO1 (translational activator of cytochrome c oxidase I) | 0.412 | 1.99 | 0.316 | 0.381 | 0.45
CARD11 (caspase recruitment domain family member 11) | 0.829 | 2.27 | 0.847 | 0.691 | 0.695
RASGRP3 (RAS guanyl releasing protein 3) | -0.384 | 3.23 | -0.504 | -0.217 | -0.379
PFAS (phosphoribosylformylglycinamidine synthase) | -0.799 | 2.1 | -0.703 | -0.205 | -0.765
ZNF334 (zinc finger protein 334) | -0.269 | 1.92 | -0.442 | -0.207 | -0.266
TEX14 (testis expressed 14, intercellular bridge forming factor) | 0.525 | 1.69 | 0.614 | 0.687 | 0.243
AKAP14 (A-kinase anchoring protein 14) | -0.577 | 2.39 | -0.661 | -0.515 | -0.709
BBX (BBX high mobility group box domain containing) | -0.351 | 2.1 | -0.565 | -0.00429 | 0.0227
CDADC1 (cytidine and dCMP deaminase domain containing 1) | 0.0456 | 2.7 | 0.0662 | -0.155 | -0.0657
CTSB (cathepsin B) | 0.168 | 2.09 | -0.0156 | 0.0593 | 0.514
MT1B (metallothionein 1B) | 0.327 | 1.41 | 0.373 | 0.323 | 0.327
SERPINA3 (serpin family A member 3) | -0.222 | 2.72 | -0.27 | -0.188 | -0.258
UNC80 (unc-80 subunit of NALCN channel complex) | 0.0438 | 3.58 | 0.412 | -0.337 | -0.162
CRABP2 (cellular retinoic acid binding protein 2) | -0.0511 | 2.22 | -0.0575 | -0.0695 | -0.157
BAIAP2 (BAR/IMD domain containing adaptor protein 2) | -0.449 | 1.66 | -0.548 | -0.414 | 0.049
DBNDD1 (dysbindin domain containing 1) | 0.0658 | 2.22 | 0.0581 | -0.126 | 0.0135
BEX3 (brain expressed X-linked 3) | -0.303 | 2.24 | -0.397 | -0.67 | -0.205

A run of entries from the list above, as a working copy:
Gene | mean correlation with KSR1 profile | mean distance from KSR1 profile | KSR1 correlation, replicate 1 | KSR1 correlation, replicate 2 | KSR1 correlation, replicate 3
RASGRP3 (RAS guanyl releasing protein 3) | -0.384 | 3.23 | -0.504 | -0.217 | -0.379
PFAS (phosphoribosylformylglycinamidine synthase) | -0.799 | 2.1 | -0.703 | -0.205 | -0.765
ZNF334 (zinc finger protein 334) | -0.269 | 1.92 | -0.442 | -0.207 | -0.266
TEX14 (testis expressed 14, intercellular bridge forming factor) | 0.525 | 1.69 | 0.614 | 0.687 | 0.243

The list goes on.
Gene | mean correlation with KSR1 profile | mean distance from KSR1 profile | KSR1 correlation, replicate 1 | KSR1 correlation, replicate 2 | KSR1 correlation, replicate 3
TMEM100 (transmembrane protein 100) | 0.616 | 1.67 | 0.683 | 0.178 | 0.406
HIP1R (huntingtin interacting protein 1 related) | 0.0118 | 1.44 | 0.297 | -0.203 | 0.0344
RAPGEFL1 (Rap guanine nucleotide exchange factor like 1) | 0.539 | 0.964 | 0.565 | 0.745 | 0.366
PTH1R (parathyroid hormone 1 receptor) | 0.709 | 1.64 | 0.738 | 0.682 | 0.77
NEK7 (NIMA related kinase 7) | 0.317 | 1.38 | 0.322 | 0.433 | 0.422
RBFOX2 (RNA binding fox-1 homolog 2) | -0.389 | 3.31 | -0.271 | -0.31 | -0.413
NENF (neudesin neurotrophic factor) | -0.473 | 4.68 | -0.505 | -0.579 | -0.619
STARD7 (StAR related lipid transfer domain containing 7) | 0.468 | 1.9 | 0.374 | 0.383 | 0.664
SLC17A4 | -0.318 | 2.84 | -0.236 | -0.378 | -0.422
PPP3R2 (protein phosphatase 3 regulatory subunit B, beta) | -0.274 | 2.46 | -0.313 | -0.237 | -0.286
RABGAP1L (RAB GTPase activating protein 1 like) | -0.183 | 2.44 | -0.277 | -0.366 | -0.275
RPS25 (ribosomal protein S25) | 0.0128 | 2.77 | -0.0855 | -0.239 | 0.37
ZNF112 (zinc finger protein 112) | -0.489 | 2.71 | -0.484 | -0.321 | -0.778
HNRNPM (heterogeneous nuclear ribonucleoprotein M) | -0.263 | 1.44 | 0.0633 | -0.191 | -0.312
CIRBP (cold inducible RNA binding protein) | 0.785 | 0.729 | 0.741 | 0.777 | 0.785
H2BC17 (H2B clustered histone 17) | 0.316 | 3.94 | -0.442 | -0.329 | 0.514
ACTR3B (actin related protein 3B) | -0.378 | 1.59 | -0.238 | -0.534 | -0.319
CCNA2 (cyclin A2) | -0.0178 | 2.14 | 0.19 | -0.287 | -0.315
SFRP4 (secreted frizzled related protein 4) | 0.0495 | 1.23 | -0.346 | 0.244 | 0.186
CSK (C-terminal Src kinase) | 0.187 | 2.47 | 0.183 | 0.378 | 0.00346
VPS52 (VPS52 subunit of GARP complex) | 0.124 | 2.12 | 0.0118 | 0.118 | 0.168
HCN2 | 0.635 | 1.55 | 0.425 | 0.639 | 0.787
ABLIM1 (actin binding LIM protein 1) | -0.095 | 2.18 | -0.203 | -0.103 | -0.225
GSAP (gamma-secretase activating protein) | 0.413 | 1.65 | 0.136 | 0.489 | 0.49
BORCS6 (BLOC-1 related complex subunit 6) | -0.268 | 5.3 | -0.254 | -0.106 | -0.229
ADPGK (ADP dependent glucokinase) | -0.481 | 1.41 | -0.361 | 0.409 | -0.544
HSPH1 (heat shock protein family H (Hsp110) member 1) | 0.848 | 0.649 | 0.833 | 0.767 | 0.885
AKIRIN1 (akirin 1) | 0.239 | 2.57 | 0.184 | 0.0697 | 0.416
OIP5 (Opa interacting protein 5) | 0.0617 | 2.83 | 0.207 | -0.037 | 0.119
CSTF1 (cleavage stimulation factor subunit 1) | -0.0188 | 1.56 | -0.0143 | 0.139 | -0.485
PRAMEF2 (PRAME family member 2) | -0.124 | 4.75 | -0.144 | -0.226 | -0.13
SCARA3 (scavenger receptor class A member 3) | 0.458 | 0.924 | 0.515 | 0.261 | 0.697
MYRIP (myosin VIIA and Rab interacting protein) | 0.27 | 1.44 | 0.181 | 0.278 | 0.193
MINDY3 (MINDY lysine 48 deubiquitinase 3) | 0.505 | 1.31 | 0.396 | 0.423 | 0.133
NKAP (NFKB activating protein) | -0.361 | 2.3 | -0.18 | -0.356 | -0.417
TRMT11 (tRNA methyltransferase 11) | -0.961 | 5.22 | -0.808 | -0.353 | -0.824
FHIP2A (FHF complex subunit HOOK interacting protein 2A) | -0.143 | 1.12 | -0.298 | 0.253 | -0.377
TESC (tescalcin) | -0.326 | 3.07 | -0.135 | -0.418 | -0.452
HNRNPDL (heterogeneous nuclear ribonucleoprotein D like) | -0.383 | 2.26 | -0.284 | -0.48 | -0.377
LIN7B (lin-7 cell polarity scaffold B) | -0.297 | 2.27 | -0.298 | -0.292 | -0.439
STAT3 (signal transducer and activator of transcription 3) | -0.475 | 3.6 | -0.829 | -0.488 | 0.0435
